From patent EP2662079A1 (Ordway Research Institute, Inc., priority 2012, dated 2013)

System: GL261 murine brain tumor cells
Experiment: GL261 growth curve, cell size and colony forming efficiency
Type: cell-based
Procedure: 1 x 10^5 cells per 25 cm^2 flask at time zero (density 40 cells/mm^2). Three flasks were utilized at each time period. The medium in the flasks was not changed over the duration of the growth curve (unfed cultures). Data were taken daily from day zero to day 11.5 post-seeding and cell numbers, age distributions, and apoptotic percentages were determined. After growth curve shapes (without and with 2 µM Tetrac) were determined, irradiation times at 70 and 270 hour post-seeding were chosen.
To obtain exponential and plateau phase cell numbers, we trypsinized ([…] trypsin-EDTA) cells for 5 min at 37°C.
For determination of CCDTs, the cell numbers per flask were determined on a daily basis. A four-day interval in the exponential region of growth to obtain the CCDTs, yielding a total of 12 estimations for analysis was utilized. A regression analysis was performed using the (log) of the cell number versus the linear time in days (SigmaPlot, V. 10, Systat Software, Inc., Point Richmond, CA). The log slope value and its standard error (SE) were determined, and the SE was converted to the 95% confidence limits using a two-tailed t-table at N-1 degrees of freedom where N is the number of samples. (See Goldstein, A. In: Biostatistics, New York, The MacMillan Co., 1964, p. 140-146).

In the case of `O=C(O)Cc1cc(I)c(Oc2cc(I)c(O)c(I)c2)c(I)c1` [Tetrac, 3,3',5,5'-tetraiodothyroacetic acid], the “Mean nuclear/cell area (%)” value (Exponential Cells (+Tetrac)) is reported as 42%, the “Median Volume (µm^3)” value (Exponential Cells (+Tetrac)) is reported as 3850 µm^3 and the “Median cell area (µm^2)” value (Exponential Cells (+Tetrac)) is reported as 2814 µm^2. For the same molecule, the “Median nuclear area (µm^2)” value (Exponential Cells (+Tetrac)) was 1180 µm^2, the “Mean nuclear/cell area (%)” value (Plateau phase Cells (+Tetrac)) was 44% and the “Median Volume (µm^3)” value (Plateau phase Cells (+Tetrac)) was 2780 µm^3. The “Median cell area (µm^2)” value (Plateau phase Cells (+Tetrac)) was 700 µm^2, the “Median nuclear area (µm^2)” value (Plateau phase Cells (+Tetrac)) was 310 µm^2 and the “cell size relative to control GL261 cells” value (Tetrac-treated exponential cells) was 1.4 times. For the same molecule, the “cell size relative to control GL261 cells” value (Tetrac-treated plateau phase cells) was 1.9 times.
